Where two headings read alike, the source gives them in different places. Results are given in words; binding and its absence hold for the method and conditions named. In cells and extracts the contact can be indirect. A yes stands for co-enrichment or nearness to the bait. Other partners may have been found. One block for each molecule: values may come before it.
Key:
[1] = molecular target: BioID2-Gαi1-Q204L (human) (UniProt P63096); test: proximity labelling
[2] = molecular target: BioID2-Gαi1-Q204L (human) (UniProt P63096); test: proximity labelling; remark: listed apart in the source

By UniProt entry, the sequences of proteins in these tests, tags left out. Where a name states a change or a piece, a line headed by the entry shows the natural chain unless it says otherwise.
UniProt P63096: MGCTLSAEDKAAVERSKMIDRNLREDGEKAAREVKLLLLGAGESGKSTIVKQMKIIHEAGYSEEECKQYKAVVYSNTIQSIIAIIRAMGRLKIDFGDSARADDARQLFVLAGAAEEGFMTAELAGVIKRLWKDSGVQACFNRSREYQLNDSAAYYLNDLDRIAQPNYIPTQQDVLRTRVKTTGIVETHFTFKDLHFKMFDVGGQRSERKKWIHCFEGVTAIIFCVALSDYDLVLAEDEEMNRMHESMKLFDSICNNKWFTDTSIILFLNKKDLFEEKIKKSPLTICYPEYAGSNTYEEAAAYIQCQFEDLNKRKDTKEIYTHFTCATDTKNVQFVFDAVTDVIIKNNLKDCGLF
UniProt O15085: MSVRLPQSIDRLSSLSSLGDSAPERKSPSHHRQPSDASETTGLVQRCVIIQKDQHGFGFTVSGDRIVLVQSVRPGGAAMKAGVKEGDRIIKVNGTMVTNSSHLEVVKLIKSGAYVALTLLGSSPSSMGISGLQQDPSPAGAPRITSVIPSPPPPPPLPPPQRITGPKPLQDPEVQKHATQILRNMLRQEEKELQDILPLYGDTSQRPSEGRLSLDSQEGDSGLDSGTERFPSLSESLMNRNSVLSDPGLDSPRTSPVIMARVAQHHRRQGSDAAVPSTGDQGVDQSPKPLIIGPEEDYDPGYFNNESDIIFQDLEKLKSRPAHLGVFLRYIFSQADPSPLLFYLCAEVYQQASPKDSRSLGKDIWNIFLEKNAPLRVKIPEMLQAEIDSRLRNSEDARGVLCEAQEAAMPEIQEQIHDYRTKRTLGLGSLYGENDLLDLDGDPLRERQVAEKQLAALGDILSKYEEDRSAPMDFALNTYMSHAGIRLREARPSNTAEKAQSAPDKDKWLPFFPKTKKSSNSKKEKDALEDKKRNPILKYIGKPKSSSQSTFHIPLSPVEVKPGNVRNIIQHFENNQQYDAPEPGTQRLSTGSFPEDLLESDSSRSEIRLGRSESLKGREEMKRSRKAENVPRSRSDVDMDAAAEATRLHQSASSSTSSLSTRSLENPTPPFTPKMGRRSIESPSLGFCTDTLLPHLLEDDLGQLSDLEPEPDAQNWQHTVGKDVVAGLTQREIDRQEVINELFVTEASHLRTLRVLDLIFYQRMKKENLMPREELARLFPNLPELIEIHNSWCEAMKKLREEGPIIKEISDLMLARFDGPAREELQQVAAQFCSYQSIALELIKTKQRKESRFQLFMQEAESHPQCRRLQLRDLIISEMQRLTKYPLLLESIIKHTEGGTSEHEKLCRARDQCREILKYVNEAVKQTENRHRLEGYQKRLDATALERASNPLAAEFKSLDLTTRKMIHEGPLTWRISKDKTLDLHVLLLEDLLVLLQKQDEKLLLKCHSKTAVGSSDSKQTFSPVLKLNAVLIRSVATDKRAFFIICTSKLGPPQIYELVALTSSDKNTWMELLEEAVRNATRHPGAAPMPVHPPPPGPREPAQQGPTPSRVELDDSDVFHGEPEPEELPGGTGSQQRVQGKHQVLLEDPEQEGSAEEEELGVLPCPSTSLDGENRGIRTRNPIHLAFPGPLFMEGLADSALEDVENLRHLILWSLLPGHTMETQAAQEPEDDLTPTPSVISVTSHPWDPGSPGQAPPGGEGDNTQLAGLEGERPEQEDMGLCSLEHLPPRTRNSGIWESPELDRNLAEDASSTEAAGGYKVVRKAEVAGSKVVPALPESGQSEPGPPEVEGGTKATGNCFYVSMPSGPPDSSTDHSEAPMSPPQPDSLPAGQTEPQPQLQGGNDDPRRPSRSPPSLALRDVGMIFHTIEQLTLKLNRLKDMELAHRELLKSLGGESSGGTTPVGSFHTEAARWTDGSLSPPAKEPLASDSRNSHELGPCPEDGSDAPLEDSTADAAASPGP
UniProt Q14247: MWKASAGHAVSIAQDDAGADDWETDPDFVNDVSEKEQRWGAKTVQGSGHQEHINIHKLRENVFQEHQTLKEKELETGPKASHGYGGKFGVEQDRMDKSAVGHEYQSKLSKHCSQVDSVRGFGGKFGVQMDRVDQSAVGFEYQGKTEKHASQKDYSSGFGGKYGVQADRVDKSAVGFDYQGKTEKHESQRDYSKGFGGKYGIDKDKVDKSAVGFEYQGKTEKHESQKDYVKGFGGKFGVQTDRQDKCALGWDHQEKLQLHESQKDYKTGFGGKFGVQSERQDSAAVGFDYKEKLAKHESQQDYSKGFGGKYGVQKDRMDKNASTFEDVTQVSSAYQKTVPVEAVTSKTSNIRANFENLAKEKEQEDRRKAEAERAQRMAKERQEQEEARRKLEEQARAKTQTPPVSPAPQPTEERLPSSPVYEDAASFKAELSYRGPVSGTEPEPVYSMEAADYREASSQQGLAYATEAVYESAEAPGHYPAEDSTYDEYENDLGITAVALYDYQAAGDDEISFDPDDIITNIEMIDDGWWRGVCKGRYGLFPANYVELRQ
UniProt P18850: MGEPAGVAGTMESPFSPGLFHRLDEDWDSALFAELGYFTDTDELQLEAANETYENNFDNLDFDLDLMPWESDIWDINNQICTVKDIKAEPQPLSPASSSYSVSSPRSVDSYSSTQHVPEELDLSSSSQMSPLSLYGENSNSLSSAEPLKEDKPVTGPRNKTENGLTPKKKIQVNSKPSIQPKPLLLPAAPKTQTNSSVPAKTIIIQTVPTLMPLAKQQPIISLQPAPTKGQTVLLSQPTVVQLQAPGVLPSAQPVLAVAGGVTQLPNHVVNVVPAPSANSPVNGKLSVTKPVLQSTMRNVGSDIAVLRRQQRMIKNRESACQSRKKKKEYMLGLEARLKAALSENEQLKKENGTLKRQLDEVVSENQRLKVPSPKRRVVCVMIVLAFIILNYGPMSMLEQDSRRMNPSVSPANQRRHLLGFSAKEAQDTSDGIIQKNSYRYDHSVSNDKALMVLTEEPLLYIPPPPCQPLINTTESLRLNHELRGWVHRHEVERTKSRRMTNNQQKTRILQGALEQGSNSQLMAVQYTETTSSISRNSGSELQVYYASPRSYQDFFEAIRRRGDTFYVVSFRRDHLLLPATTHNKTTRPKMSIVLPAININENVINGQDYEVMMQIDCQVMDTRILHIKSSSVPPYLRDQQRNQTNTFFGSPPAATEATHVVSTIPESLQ
UniProt Q9NPQ8: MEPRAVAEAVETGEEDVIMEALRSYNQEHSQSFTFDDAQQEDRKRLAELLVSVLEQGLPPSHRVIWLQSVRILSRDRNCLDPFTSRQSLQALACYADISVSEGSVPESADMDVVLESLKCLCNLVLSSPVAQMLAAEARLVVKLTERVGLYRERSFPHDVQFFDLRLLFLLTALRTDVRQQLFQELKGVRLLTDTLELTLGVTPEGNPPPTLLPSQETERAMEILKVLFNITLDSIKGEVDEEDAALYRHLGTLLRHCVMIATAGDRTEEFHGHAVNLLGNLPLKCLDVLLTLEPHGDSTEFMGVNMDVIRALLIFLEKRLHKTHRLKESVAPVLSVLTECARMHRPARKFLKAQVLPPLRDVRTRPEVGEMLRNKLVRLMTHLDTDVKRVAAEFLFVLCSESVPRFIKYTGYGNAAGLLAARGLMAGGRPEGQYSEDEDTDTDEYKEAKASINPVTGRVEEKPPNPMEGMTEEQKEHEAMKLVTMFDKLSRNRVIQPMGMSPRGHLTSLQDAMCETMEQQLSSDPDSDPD
UniProt P08670: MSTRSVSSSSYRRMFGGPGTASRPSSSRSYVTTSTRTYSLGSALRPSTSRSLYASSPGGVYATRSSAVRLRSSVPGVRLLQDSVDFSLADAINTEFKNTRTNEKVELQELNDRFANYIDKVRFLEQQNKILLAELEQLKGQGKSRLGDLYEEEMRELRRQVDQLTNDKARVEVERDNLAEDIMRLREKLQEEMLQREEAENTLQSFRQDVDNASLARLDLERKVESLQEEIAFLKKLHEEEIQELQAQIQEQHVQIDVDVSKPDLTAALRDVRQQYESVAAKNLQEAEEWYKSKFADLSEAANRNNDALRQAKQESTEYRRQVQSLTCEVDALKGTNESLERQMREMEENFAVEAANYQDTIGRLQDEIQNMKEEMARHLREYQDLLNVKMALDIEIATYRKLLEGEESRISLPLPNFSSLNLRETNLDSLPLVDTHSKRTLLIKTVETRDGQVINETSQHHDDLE

- binding [1]: binds
Molecule: PDZ-RhoGEF (from UniProt O15085 1-1522)

- binding [1]: binds
Molecule: Cortactin-GFP (from UniProt Q14247 1-550)

- binding [1]: binds
Molecule: c-myc tagged full-length PRG (from UniProt O15085 1-1522)

- binding [1]: binds
Molecule: ATF6 (Activating Transcription Factor 6) (from UniProt P18850 1-670)

- binding [1]: binds
Molecule: Ric8A (from UniProt Q9NPQ8 1-531)

- binding [1]: binds
Molecule: Vimentin-GFP (from UniProt P08670 1-466)

- binding [1]: binds
Molecule: Vimentin (from UniProt P08670 1-466)

- binding [2]: binds
B1: p54 (Nuclear RNA-Binding Protein, 54-KD or NONO) (protein, UniProt Q15233 1-471)
chain: MQSNKTFNLEKQNHTPRKHHQHHHQQQHHQQQQQQPPPPPIPANGQQASSQNEGLTIDLKNFRKPGEKTFTQRSRLFVGNLPPDITEEEMRKLFEKYGKAGEVFIHKDKGFGFIRLETRTLAEIAKVELDNMPLRGKQLRVRFACHSASLTVRNLPQYVSNELLEEAFSVFGQVERAVVIVDDRGRPSGKGIVEFSGKPAARKALDRCSEGSFLLTTFPRPVTVEPMDQLDDEEGLPEKLVIKNQQFHKEREQPPRFAQPGSFEYEYAMRWKALIEMEKQQQDQVDRNIKEAREKLEMEMEAARHEHQVMLMRQDLMRRQEELRRMEELHNQEVQKRKQLELRQEEERRRREEEMRRQQEEMMRRQQEGFKGTFPDAREQEIRMGQMAMGGAMGINNRGAMPPAPVPAGTPAPPGPATMMPDGTLGLTPPTTERFGQAATMEGIGAIGGTPPAFNRAAPGAEFAPNKRRRY

- binding [2]: binds
B2: GOLGA5 (Golgin A5) (protein, UniProt Q8TBA6 1-731)
chain: MSWFVDLAGKAEDLLNRVDQGAATALSRKDNASNIYSKNTDYTELHQQNTDLIYQTGPKSTYISSAADNIRNQKATILAGTANVKVGSRTPVEASHPVENASVPRPSSHFVRRKKSEPDDELLFDFLNSSQKEPTGRVEIRKEKGKTPVFQSSQTSSVSSVNPSVTTIKTIEENSFGSQTHEAASNSDSSHEGQEESSKENVSSNAACPDHTPTPNDDGKSHELSNLRLENQLLRNEVQSLNQEMASLLQRSKETQEELNKARARVEKWNADHSKSDRMTRGLRAQVDDLTEAVAAKDSQLAVLKVRLQEADQLLSTRTEALEALQSEKSRIMQDQSEGNSLQNQALQTFQERLHEADATLKREQESYKQMQSEFAARLNKVEMERQNLAEAITLAERKYSDEKKRVDELQQQVKLYKLNLESSKQELIDYKQKATRILQSKEKLINSLKEGSGFEGLDSSTASSMELEELRHEKEMQREEIQKLMGQIHQLRSELQDMEAQQVNEAESAREQLQDLHDQIAGQKASKQELETELERLKQEFHYIEEDLYRTKNTLQSRIKDRDEEIQKLRNQLTNKTLSNSSQSELENRLHQLTETLIQKQTMLESLSTEKNSLVFQLERLEQQMNSASGSSSNGSSINMSGIDNGEGTRLRNVPVLFNDTETNLAGMYGKVRKAASSIDQFSIRLGIFLRRYPIARVFVIIYMALLHLWVMIVLLTYTPEMHHDQPYGK

- binding [2]: binds
B3: PSPC1 (Paraspeckle Component 1) (protein, UniProt Q8WXF1 1-523)
chain: MMLRGNLKQVRIEKNPARLRALESAVGESEPAAAAAMALALAGEPAPPAPAPPEDHPDEEMGFTIDIKSFLKPGEKTYTQRCRLFVGNLPTDITEEDFKRLFERYGEPSEVFINRDRGFGFIRLESRTLAEIAKAELDGTILKSRPLRIRFATHGAALTVKNLSPVVSNELLEQAFSQFGPVEKAVVVVDDRGRATGKGFVEFAAKPPARKALERCGDGAFLLTTTPRPVIVEPMEQFDDEDGLPEKLMQKTQQYHKEREQPPRFAQPGTFEFEYASRWKALDEMEKQQREQVDRNIREAKEKLEAEMEAARHEHQLMLMRQDLMRRQEELRRLEELRNQELQKRKQIQLRHEEEHRRREEEMIRHREQEELRRQQEGFKPNYMENREQEMRMGDMGPRGAINMGDAFSPAPAGNQGPPPMMGMNMNNRATIPGPPMGPGPAMGPEGAANMGTPMMPDNGAVHNDRFPQGPPSQMGSPMGSRTGSETPQAPMSGVGPVSGGPGGFGRGSQGGNFEGPNKRRRY

- binding [2]: binds
B4: RASA3 (protein, UniProt Q14644 1-834)
chain: MAVEDEGLRVFQSVKIKIGEAKNLPSYPGPSKMRDCYCTVNLDQEEVFRTKIVEKSLCPFYGEDFYCEIPRSFRHLSFYIFDRDVFRRDSIIGKVAIQKEDLQKYHNRDTWFQLQHVDADSEVQGKVHLELRLSEVITDTGVVCHKLATRIVECQGLPIVNGQCDPYATVTLAGPFRSEAKKTKVKRKTNNPQFDEVFYFEVTRPCSYSKKSHFDFEEEDVDKLEIRVDLWNASNLKFGDEFLGELRIPLKVLRQSSSYEAWYFLQPRDNGSKSLKPDDLGSLRLNVVYTEDHVFSSDYYSPLRDLLLKSADVEPVSASAAHILGEVCREKQEAAVPLVRLFLHYGRVVPFISAIASAEVKRTQDPNTIFRGNSLASKCIDETMKLAGMHYLHVTLKPAIEEICQSHKPCEIDPVKLKDGENLENNMENLRQYVDRVFHAITESGVSCPTVMCDIFFSLREAAAKRFQDDPDVRYTAVSSFIFLRFFAPAILSPNLFQLTPHHTDPQTSRTLTLISKTVQTLGSLSKSKSASFKESYMATFYEFFNEQKYADAVKNFLDLISSSGRRDPKSVEQPIVLKEGFMIKRAQGRKRFGMKNFKKRWFRLTNHEFTYHKSKGDQPLYSIPIENILAVEKLEEESFKMKNMFQVIQPERALYIQANNCVEAKDWIDILTKVSQCNQKRLTVYHPSAYLSGHWLCCRAPSDSAPGCSPCTGGLPANIQLDIDGDRETERIYSLFNLYMSKLEKMQEACGSKSVYDGPEQEEYSTFVIDDPQETYKTLKQVIAGVGALEQEHAQYKRDKFKKTKYGSQEHPIGDKSFQNYIRQQSETSTHSI

- binding [2]: binds
B5: SORBS (Sorbin and SH3 domain-containing protein 2 or ArgBP2) (protein, UniProt O94875 1-1100)
chain: MSYYQRPFSPSAYSLPASLNSSIVMQHGTSLDSTDTYPQHAQSLDGTTSSSIPLYRSSEEEKRVTVIKAPHYPGIGPVDESGIPTAIRTTVDRPKDWYKTMFKQIHMVHKPDDDTDMYNTPYTYNAGLYNPPYSAQSHPAAKTQTYRPLSKSHSDNSPNAFKDASSPVPPPHVPPPVPPLRPRDRSSTEKHDWDPPDRKVDTRKFRSEPRSIFEYEPGKSSILQHERPASLYQSSIDRSLERPMSSASMASDFRKRRKSEPAVGPPRGLGDQSASRTSPGRVDLPGSSTTLTKSFTSSSPSSPSRAKGGDDSKICPSLCSYSGLNGNPSSELDYCSTYRQHLDVPRDSPRAISFKNGWQMARQNAEIWSSTEETVSPKIKSRSCDDLLNDDCDSFPDPKVKSESMGSLLCEEDSKESCPMAWGSPYVPEVRSNGRSRIRHRSARNAPGFLKMYKKMHRINRKDLMNSEVICSVKSRILQYESEQQHKDLLRAWSQCSTEEVPRDMVPTRISEFEKLIQKSKSMPNLGDDMLSPVTLEPPQNGLCPKRRFSIEYLLEEENQSGPPARGRRGCQSNALVPIHIEVTSDEQPRAHVEFSDSDQDGVVSDHSDYIHLEGSSFCSESDFDHFSFTSSESFYGSSHHHHHHHHHHHRHLISSCKGRCPASYTRFTTMLKHERARHENTEEPRRQEMDPGLSKLAFLVSPVPFRRKKNSAPKKQTEKAKCKASVFEALDSALKDICDQIKAEKKRGSLPDNSILHRLISELLPDVPERNSSLRALRRSPLHQPLHPLPPDGAIHCPPYQNDCGRMPRSASFQDVDTANSSCHHQDRGGALQDRESPRSYSSTLTDMGRSAPRERRGTPEKEKLPAKAVYDFKAQTSKELSFKKGDTVYILRKIDQNWYEGEHHGRVGIFPISYVEKLTPPEKAQPARPPPPAQPGEIGEAIAKYNFNADTNVELSLRKGDRVILLKRVDQNWYEGKIPGTNRQGIFPVSYVEVVKKNTKGAEDYPDPPIPHSYSSDRIHSLSSNKPQRPVFTHENIQGGGEPFQALYNYTPRNEDELELRESDVIDVMEKCDDGWFVGTSRRTKFFGTFPGNYVKRL

- binding [2]: binds
B6: GPRIN1 (protein, UniProt Q7Z2K8 1-1008)
chain: MDTAEDPAWLQLLQKDSSPPGPRPTAFFCPQDGSLGAGSSAMRDYCPSQQKASPAPPRHTPDQSPGMESRHRSPSGAGEGASCSDGPRGSLACPSPTCFSPQESPSKETLEAHGASISGTPEATTSGKPEPVSSVKTEPKSSDDRNPMFLEKMDFKSSKQADSTSIGKEDPGSSRKADPMFTGKAEPEILGKGDPVAPGRMDPMTVRKEDLGSLGKVDPLCSSKTYTVSPRKEDPGSLRKVDPVSSDKVDPVFPRKEEPRYSGKEHPVSSEKVAPTSAEKVDLVLSGKRDPGPSGKADPMPLESMDSASTGKTEPGLLGKLIPGSSGKNGPVSSGTGAPGSLGRLDPTCLGMADPASVGNVETVPATKEDSRFLGKMDPASSGEGRPVSGHTDTTASAKTDLTSLKNVDPMSSGKVDPVSLGKMDPMCSGKPELLSPGQAERVSVGKAGTVSPGKEDPVSSRREDPISAGSRKTSSEKVNPESSGKTNPVSSGPGDPRSLGTAGPPSAVKAEPATGGKGDPLSSEKAGLVASGKAAPTASGKAEPLAVGKEDPVSKGKADAGPSGQGDSVSIGKVVSTPGKTVPVPSGKVDPVSLGKAEAIPEGKVGSLPLEKGSPVTTTKADPRASGKAQPQSGGKAETKLPGQEGAAAPGEAGAVCLKKETPQASEKVDPGSCRKAEPLASGKGEPVSLGKADSAPSRKTESPSLGKVVPLSLEKTKPSSSSRQLDRKALGSARSPEGARGSEGRVEPKAEPVSSTEASSLGQKDLEAAGAERSPCPEAAAPPPGPRTRDNFTKAPSWEASAPPPPREDAGTQAGAQACVSVAVSPMSPQDGAGGSAFSFQAAPRAPSPPSRRDAGLQVSLGAAETRSVATGPMTPQAAAPPAFPEVRVRPGSALAAAVAPPEPAEPVRDVSWDEKGMTWEVYGAAMEVEVLGMAIQKHLERQIEEHGRQGAPAPPPAARAGPGRSGSVRTAPPDGAAKRPPGLFRALLQSVRRPRCCSRAGPTAE

From paper doi:10.1101/2021.07.15.452545
